Test results reported in PubChem BioAssay AID651595 (National Center for Advancing Translational Sciences (NCATS), 2012).
Among all 1,100 compounds or so, fewer than 10 were called active. About 6% were inconclusive and are not listed. Calls follow the shape of the dose curve; as a rule, active = well fitted cell-killing curve with a large enough effect; inconclusive = small, poorly fitted or top-dose-only effect; inactive = flat fitted curve, though single readings scatter. The list shows a part of the results.

assay: qHTS of Nrf2 Activators: Hit Validation in Cytotox Assay; settings: Cell viability counter-screen for Nrf2 activator hits; series mostly up to 46.1 µM; activity change, negative = cytotoxicity: at the top concentration;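 also: compound exposure lasted 24 hours before the ATP readout; 0% is about no effect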
Procedure, shortened: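 Intracellular ATP measured with CellTiter-Glo luminescence (30 min, room temperature) as a viability read-out. Cells: AREc32_fluc, cultured overnight before 24 h compound exposure at 7 concentrations, 37 °C; activity here marks cytotoxicity.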

| Structure (SMILES) | activity change, negative = cytotoxicity |
| --- | --- |
| C/C(=N\NC(=O)c1cccc(S(=O)(=O)Nc2cccc(Cl)c2)c1)c1cccs1 | inactive: -26% |
| O=C(Nc1cccn2ncnc12)c1cccc(C(F)(F)F)c1 | inactive: 0.124% |
| Cc1cc(=O)n2nc(-c3ccccc3)sc2c1C#N | inactive: 1.07% |
| CC(C)Nc1ccc(-c2nc(-c3ccco3)no2)cc1[N+](=O)[O-] | inactive: 10.1% |
| Cc1c(NC(=O)Nc2cccs2)cccc1[N+](=O)[O-] | inactive: 9.6% |
| O=C(Nc1cc(Cl)ccc1-n1cncn1)c1ccco1 | inactive: 15.6% |
| S=C(NNc1ccc2ccccc2c1)NC1CCCCC1 | inactive: -1.82% |
| COC(=O)c1c(NC(=O)/C=C/C(=O)O)sc(C)c1-c1ccc(C(C)C)cc1 | inactive: -2.1% |
| COc1ccccc1NC(=O)c1ncn(-c2ccccc2)n1 | inactive: -0.953% |
| COc1ccccc1C(=O)O/N=C(\N)c1ccc(Cl)cc1 | inactive: 2.4% |
| O=C(/C=C/c1ccco1)NC(=S)Nc1ccccc1N1CCCC1 | inactive: 6.04% |
| Clc1nc2sccn2c1/C=N/n1cnc2ccccc21 | inactive: 6.23% |
| COn1c(=O)c(-c2cccc(Br)c2)[n+]([O-])c2ccccc21 | inactive: -2.87% |
| Cc1noc(C(=O)Nc2cc(Cl)ccc2O)c1Cl | inactive: -29% |
| FC(F)(F)c1cc(-c2cccs2)nc(-n2cc(Br)cn2)n1 | inactive: 0.601% |
| Cn1cnnc1Sc1ccc(/C=C/C(=O)c2ccc(O)cc2)cc1[N+](=O)[O-] | inactive: -12.4% |
| CSc1nc(Oc2ccc3ccccc3c2)c2sccc2n1 | inactive: 7.5% |
| Cc1sc2ncnc(NCc3ccco3)c2c1C | inactive: -11.6% |
| Fc1cccc(Cl)c1/C=N/Nc1ccccn1 | inactive: -6.88% |
| COc1cccc(C2=CC(c3cccs3)n3nnnc3N2)c1 (configuration not stated) | inactive: 1.85% |
| CC(=O)N(/N=C1\Sc2ccccc2C1=O)c1ccccc1 | inactive: -6.11% |
| N/C(=N\OC(=O)/C=C/c1ccccc1)c1cccnc1 | inactive: -0.168% |

Random excerpt: 2 compounds from above.

| Structure (SMILES) | activity change, negative = cytotoxicity |
| --- | --- |
| COc1cccc(C2=CC(c3cccs3)n3nnnc3N2)c1 (configuration not stated) | inactive: 1.85% |
| Cc1c(NC(=O)Nc2cccs2)cccc1[N+](=O)[O-] | inactive: 9.6% |
